Reference: paper PMC7364817
These are yes or no findings as the source states them, for the method shown. Binding seen in cells or lysates may run through a third protein. A yes stands for co-enrichment or nearness to the bait. Other partners may have been found. Tags and fused reporters may be left off the sequences shown.

T1: FLAG-tagged SMCR8 (Smith-Magenis Syndrome Chromosome Region, Candidate 8) (UniProt Q8TEV9)
T1 sequence: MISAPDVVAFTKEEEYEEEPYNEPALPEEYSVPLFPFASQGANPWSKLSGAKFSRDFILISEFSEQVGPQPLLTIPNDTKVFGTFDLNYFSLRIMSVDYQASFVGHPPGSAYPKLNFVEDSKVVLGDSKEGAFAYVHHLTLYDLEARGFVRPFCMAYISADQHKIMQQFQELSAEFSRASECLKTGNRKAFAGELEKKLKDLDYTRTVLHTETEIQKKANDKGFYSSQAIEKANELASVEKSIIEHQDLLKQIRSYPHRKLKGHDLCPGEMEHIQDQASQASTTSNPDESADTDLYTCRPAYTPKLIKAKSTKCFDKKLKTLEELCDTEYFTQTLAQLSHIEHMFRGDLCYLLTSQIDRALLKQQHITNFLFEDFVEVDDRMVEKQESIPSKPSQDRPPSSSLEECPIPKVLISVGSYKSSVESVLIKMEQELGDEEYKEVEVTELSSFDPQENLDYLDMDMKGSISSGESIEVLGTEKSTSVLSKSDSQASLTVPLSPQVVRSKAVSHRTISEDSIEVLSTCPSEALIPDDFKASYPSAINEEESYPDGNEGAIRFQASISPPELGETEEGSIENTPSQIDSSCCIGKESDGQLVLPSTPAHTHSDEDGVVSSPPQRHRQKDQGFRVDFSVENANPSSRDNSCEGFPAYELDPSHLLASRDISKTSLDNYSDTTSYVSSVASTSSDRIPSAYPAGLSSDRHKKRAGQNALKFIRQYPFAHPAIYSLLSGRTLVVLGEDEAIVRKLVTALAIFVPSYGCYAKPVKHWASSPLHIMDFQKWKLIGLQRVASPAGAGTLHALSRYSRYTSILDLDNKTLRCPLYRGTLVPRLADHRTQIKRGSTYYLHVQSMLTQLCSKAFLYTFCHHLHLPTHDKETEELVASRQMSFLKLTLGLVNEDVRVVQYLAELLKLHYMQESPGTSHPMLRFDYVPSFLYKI

B1: MAGE family member D1 (protein, UniProt Q9Y5V3 1-778)
chain: MAQKMDCGAGLLGFQAEASVEDSALLMQTLMEAIQISEAPPTNQATAAASPQSSQPPTANEMADIQVSAAAARPKSAFKVQNATTKGPNGVYDFSQAHNAKDVPNTQPKAAFKSQNATPKGPNAAYDFSQAATTGELAANKSEMAFKAQNATTKVGPNATYNFSQSLNANDLANSRPKTPFKAWNDTTKAPTADTQTQNVNQAKMATSQADIETDPGISEPDGATAQTSADGSQAQNLESRTIIRGKRTRKINNLNVEENSSGDQRRAPLAAGTWRSAPVPVTTQNPPGAPPNVLWQTPLAWQNPSGWQNQTARQTPPARQSPPARQTPPAWQNPVAWQNPVIWPNPVIWQNPVIWPNPIVWPGPVVWPNPLAWQNPPGWQTPPGWQTPPGWQGPPDWQGPPDWPLPPDWPLPPDWPLPTDWPLPPDWIPADWPIPPDWQNLRPSPNLRPSPNSRASQNPGAAQPRDVALLQERANKLVKYLMLKDYTKVPIKRSEMLRDIIREYTDVYPEIIERACFVLEKKFGIQLKEIDKEEHLYILISTPESLAGILGTTKDTPKLGLLLVILGVIFMNGNRASEAVLWEALRKMGLRPGVRHPLLGDLRKLLTYEFVKQKYLDYRRVPNSNPPEYEFLWGLRSYHETSKMKVLRFIAEVQKRDPRDWTAQFMEAADEALDALDAAAAEAEARAEARTRMGIGDEAVSGPWSWDDIEFELLTWDEEGDFGDPWSRIPFTFWARYHQNARSRFPQTFAGPIIGPGGTASANFAANFGAIGFFWVE
B2: aspartyl-tRNA synthetase (protein, UniProt P14868 1-501)
chain: MPSASASRKSQEKPREIMDAAEDYAKERYGISSMIQSQEKPDRVLVRVRDLTIQKADEVVWVRARVHTSRAKGKQCFLVLRQQQFNVQALVAVGDHASKQMVKFAANINKESIVDVEGVVRKVNQKIGSCTQQDVELHVQKIYVISLAEPRLPLQLDDAVRPEAEGEEEGRATVNQDTRLDNRVIDLRTSTSQAVFRLQSGICHLFRETLINKGFVEIQTPKIISAASEGGANVFTVSYFKNNAYLAQSPQLYKQMCICADFEKVFSIGPVFRAEDSNTHRHLTEFVGLDIEMAFNYHYHEVMEEIADTMVQIFKGLQERFQTEIQTVNKQFPCEPFKFLEPTLRLEYCEALAMLREAGVEMGDEDDLSTPNEKLLGHLVKEKYDTDFYILDKYPLAVRPFYTMPDPRNPKQSNSYDMFMRGEEILSGAQRIHDPQLLTERALHHGIDLEKIKAYIDSFRFGAPPHAGGGIGLERVTMLFLGLHNVRQTSMFPRDPKRLTP
B3: glutaminyl-tRNA synthetase (protein, UniProt P47897 1-775)
chain: MAALDSLSLFTSLGLSEQKARETLKNSALSAQLREAATQAQQTLGSTIDKATGILLYGLASRLRDTRRLSFLVSYIASKKIHTEPQLSAALEYVRSHPLDPIDTVDFERECGVGVIVTPEQIEEAVEAAINRHRPQLLVERYHFNMGLLMGEARAVLKWADGKMIKNEVDMQVLHLLGPKLEADLEKKFKVAKARLEETDRRTAKDVVENGETADQTLSLMEQLRGEALKFHKPGENYKTPGYVVTPHTMNLLKQHLEITGGQVRTRFPPEPNGILHIGHAKAINFNFGYAKANNGICFLRFDDTNPEKEEAKFFTAICDMVAWLGYTPYKVTYASDYFDQLYAWAVELIRRGLAYVCHQRGEELKGHNTLPSPWRDRPMEESLLLFEAMRKGKFSEGEATLRMKLVMEDGKMDPVAYRVKYTPHHRTGDKWCIYPTYDYTHCLCDSIEHITHSLCTKEFQARRSSYFWLCNALDVYCPVQWEYGRLNLHYAVVSKRKILQLVATGAVRDWDDPRLFTLTALRRRGFPPEAINNFCARVGVTVAQTTMEPHLLEACVRDVLNDTAPRAMAVLESLRVIITNFPAAKSLDIQVPNFPADETKGFHQVPFAPIVFIERTDFKEEPEPGFKRLAWGQPVGLRHTGYVIELQHVVKGPSGCVESLEVTCRRADAGEKPKAFIHWVSQPLMCEVRLYERLFQHKNPEDPTEVPGGFLSDLNLASLHVVDAALVDCSVALAKPFDKFQFERLGYFSVDPDSHQGKLVFNRTVTLKEDPGKV
B4: solute carrier family 25 member 3 (protein, UniProt Q00325 50-362)
chain: AVEEQYSCDYGSGRFFILCGLGGIISCGTTHTALVPLDLVKCRMQVDPQKYKGIFNGFSVTLKEDGVRGLAKGWAPTFLGYSMQGLCKFGFYEVFKVLYSNMLGEENTYLWRTSLYLAASASAEFFADIALAPMEAAKVRIQTQPGYANTLRDAAPKMYKEEGLKAFYKGVAPLWMRQIPYTMMKFACFERTVEALYKFVVPKPRSECSKPEQLVVTFVAGYIAGVFCAIVSHPADSVVSVLNKEKGSSASLVLKRLGFKGVWKGLFARIIMIGTLTALQWFIYDSVKVYFRLPRPPPPEMPESLKKKLGLTQ
B5: methionyl-tRNA synthetase (protein, UniProt P56192 1-900)
chain: MRLFVSDGVPGCLPVLAAAGRARGRAEVLISTVGPEDCVVPFLTRPKVPVLQLDSGNYLFSTSAICRYFFLLSGWEQDDLTNQWLEWEATELQPALSAALYYLVVQGKKGEDVLGSVRRALTHIDHSLSRQNCPFLAGETESLADIVLWGALYPLLQDPAYLPEELSALHSWFQTLSTQEPCQRAAETVLKQQGVLALRPYLQKQPQPSPAEGRAVTNEPEEEELATLSEEEIAMAVTAWEKGLESLPPLRPQQNPVLPVAGERNVLITSALPYVNNVPHLGNIIGCVLSADVFARYSRLRQWNTLYLCGTDEYGTATETKALEEGLTPQEICDKYHIIHADIYRWFNISFDIFGRTTTPQQTKITQDIFQQLLKRGFVLQDTVEQLRCEHCARFLADRFVEGVCPFCGYEEARGDQCDKCGKLINAVELKKPQCKVCRSCPVVQSSQHLFLDLPKLEKRLEEWLGRTLPGSDWTPNAQFITRSWLRDGLKPRCITRDLKWGTPVPLEGFEDKVFYVWFDATIGYLSITANYTDQWERWWKNPEQVDLYQFMAKDNVPFHSLVFPCSALGAEDNYTLVSHLIATEYLNYEDGKFSKSRGVGVFGDMAQDTGIPADIWRFYLLYIRPEGQDSAFSWTDLLLKNNSELLNNLGNFINRAGMFVSKFFGGYVPEMVLTPDDQRLLAHVTLELQHYHQLLEKVRIRDALRSILTISRHGNQYIQVNEPWKRIKGSEADRQRAGTVTGLAVNIAALLSVMLQPYMPTVSATIQAQLQLPPPACSILLTNFLCTLPAGHQIGTVSPLFQKLENDQIESLRQRFGGGQAKTSPKPAVVETVTTAKPQQIQALMDEVTKQGNIVRELKAQKADKNEVAAEVAKLLDLKKQLAVAEGKPPEAPKGKKKK
B6: DnaJ heat shock protein family member C7 (protein, UniProt Q99615 1-494)
chain: MAAAAECDVVMAATEPELLDDQEAKREAETFKEQGNAYYAKKDYNEAYNYYTKAIDMCPKNASYYGNRAATLMMLGRFREALGDAQQSVRLDDSFVRGHLREGKCHLSLGNAMAACRSFQRALELDHKNAQAQQEFKNANAVMEYEKIAETDFEKRDFRKVVFCMDRALEFAPACHRFKILKAECLAMLGRYPEAQSVASDILRMDSTNADALYVRGLCLYYEDCIEKAVQFFVQALRMAPDHEKACIACRNAKALKAKKEDGNKAFKEGNYKLAYELYTEALGIDPNNIKTNAKLYCNRGTVNSKLRKLDDAIEDCTNAVKLDDTYIKAYLRRAQCYMDTEQYEEAVRDYEKVYQTEKTKEHKQLLKNAQLELKKSKRKDYYKILGVDKNASEDEIKKAYRKRALMHHPDRHSGASAEVQKEEEKKFKEVGEAFTILSDPKKKTRYDSGQDLDEEGMNMGDFDPNNIFKAFFGGPGGFSFEASGPGNFFFQFG
B7: arginyl-tRNA synthetase (protein, UniProt P54136 1-660)
chain: MDVLVSECSARLLQQEEEIKSLTAEIDRLKNCGCLGASPNLEQLQEENLKLKYRLNILRKSLQAERNKPTKNMINIISRLQEVFGHAIKAAYPDLENPPLLVTPSQQAKFGDYQCNSAMGISQMLKTKEQKVNPREIAENITKHLPDNECIEKVEIAGPGFINVHLRKDFVSEQLTSLLVNGVQLPALGENKKVIVDFSSPNIAKEMHVGHLRSTIIGESISRLFEFAGYDVLRLNHVGDWGTQFGMLIAHLQDKFPDYLTVSPPIGDLQVFYKESKKRFDTEEEFKKRAYQCVVLLQGKNPDITKAWKLICDVSRQELNKIYDALDVSLIERGESFYQDRMNDIVKEFEDRGFVQVDDGRKIVFVPGCSIPLTIVKSDGGYTYDTSDLAAIKQRLFEEKADMIIYVVDNGQSVHFQTIFAAAQMIGWYDPKVTRVFHAGFGVVLGEDKKKFKTRSGETVRLMDLLGEGLKRSMDKLKEKERDKVLTAEELNAAQTSVAYGCIKYADLSHNRLNDYIFSFDKMLDDRGNTAAYLLYAFTRIRSIARLANIDEEMLQKAARETKILLDHEKEWKLGRCILRFPEILQKILDDLFLHTLCDYIYELATAFTEFYDSCYCVEKDRQTGKILKVNMWRMLLCEAVAAVMAKGFDILGIKPVQRM
B8: solute carrier family 25 member 11 (protein, UniProt Q02978 1-314)
chain: MAATASAGAGGIDGKPRTSPKSVKFLFGGLAGMGATVFVQPLDLVKNRMQLSGEGAKTREYKTSFHALTSILKAEGLRGIYTGLSAGLLRQATYTTTRLGIYTVLFERLTGADGTPPGFLLKAVIGMTAGATGAFVGTPAEVALIRMTADGRLPADQRRGYKNVFNALIRITREEGVLTLWRGCIPTMARAVVVNAAQLASYSQSKQFLLDSGYFSDNILCHFCASMISGLVTTAASMPVDIAKTRIQNMRMIDGKPEYKNGLDVLFKVVRYEGFFSLWKGFTPYYARLGPHTVLTFIFLEQMNKAYKRLFLSG

The binders below were run against T1, FLAG-tagged SMCR8 (Smith-Magenis Syndrome Chromosome Region, Candidate 8) (assay: affinity purification with mass spectrometry; FL-SMCR8, C9orf72-FL or empty vector transfected in HEK 293T; α-FLAG agarose IP from whole cell lysates with or without RNase; LC-MS/MS; hits with three or more spectra and not detected in vector only control).

Row | binding | Binder
1 | binds | B1
2 | binds | B2
3 | binds | B3
4 | binds | B4
5 | binds | B5
6 | binds | B6
7 | binds | B7
8 | binds | B8
